Six substances from patent EP0209897A2 (Merck & Co., Inc., priority 1985, dated 1987) can be followed below.

The nature of the first series: general procedure: solution-phase peptide synthesis; acyl azide (isoamyl nitrite); EDC/HBT. Conditions: coupling step.
In turn, “Methyl [N-(N-(N-BOC-2-amino-3-(l-naphthyl)propionyl)-N^im-DNP-histidyl)-1-amino-2-cyclohexylethyl] 2-carbomethoxy-3-cyclohgxylgropylphosphinate” returned a step yield of 58%.

Consider “Methyl [N-(N-(N-BOC-phenylalanyl)-N^im-DNP-histidyl)-I-amino-2-cyclohexylethyl]-2-carbomethoxy-4-methylpentylphosphinate”, for which the step yield was 61%.

As for “Methyl [N-(N-(N-CBZ-2-amino-3-(1-naphthyl)propionyl)-N^im-DNP-histidyl)-1-amino-2-cyclohexylethyl]2-carbomethox^y-3-cyclohexylpropylphosphinate”, the step yield is reported as 62%.

In the case of “Methyl [N-(N-(N-CBZ-2-amino-4-phenylbutyryl)-N^im-DNP-histidyl)-1-amino-2-cyclo-heaylethyl] 2-carbo- methoxy-4-methylpentylphosphinate”, the step yield was determined as 38%.

“Methyl [N-(N-(N-CBZ-phenylalanyl)-N^im-DNP-histidyl)-1-amino-2-cyclohezylethyl]-2-carbomethozy-4-methylpentylphosphinate” displayed a step yield of 55%.

The same series, now with this note: late stage modification step.
Substance “[N-(N-2-Amino-3-(l-naphthyl)propionyl-histidyl)-l-amino-2-cyclohexylethyl] 2-carboxy-4-methylpentyl- phosphinic acid” registered a step yield of 15%.
